From paper PMC10908869
No constants are given. Whether binding was seen depends on the method and setting. Binding seen in cells or lysates may run through a third protein. Some binding calls cover weakened binding; strength is not graded here.

Chains of the proteins cited; added tags and fusions are not shown. Residues count along the entry.
UniProt P05161, residues 1-157: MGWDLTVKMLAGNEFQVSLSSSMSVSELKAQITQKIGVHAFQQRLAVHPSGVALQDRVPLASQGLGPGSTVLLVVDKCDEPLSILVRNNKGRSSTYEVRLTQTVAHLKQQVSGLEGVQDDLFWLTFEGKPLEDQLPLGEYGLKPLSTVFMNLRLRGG
UniProt O00429: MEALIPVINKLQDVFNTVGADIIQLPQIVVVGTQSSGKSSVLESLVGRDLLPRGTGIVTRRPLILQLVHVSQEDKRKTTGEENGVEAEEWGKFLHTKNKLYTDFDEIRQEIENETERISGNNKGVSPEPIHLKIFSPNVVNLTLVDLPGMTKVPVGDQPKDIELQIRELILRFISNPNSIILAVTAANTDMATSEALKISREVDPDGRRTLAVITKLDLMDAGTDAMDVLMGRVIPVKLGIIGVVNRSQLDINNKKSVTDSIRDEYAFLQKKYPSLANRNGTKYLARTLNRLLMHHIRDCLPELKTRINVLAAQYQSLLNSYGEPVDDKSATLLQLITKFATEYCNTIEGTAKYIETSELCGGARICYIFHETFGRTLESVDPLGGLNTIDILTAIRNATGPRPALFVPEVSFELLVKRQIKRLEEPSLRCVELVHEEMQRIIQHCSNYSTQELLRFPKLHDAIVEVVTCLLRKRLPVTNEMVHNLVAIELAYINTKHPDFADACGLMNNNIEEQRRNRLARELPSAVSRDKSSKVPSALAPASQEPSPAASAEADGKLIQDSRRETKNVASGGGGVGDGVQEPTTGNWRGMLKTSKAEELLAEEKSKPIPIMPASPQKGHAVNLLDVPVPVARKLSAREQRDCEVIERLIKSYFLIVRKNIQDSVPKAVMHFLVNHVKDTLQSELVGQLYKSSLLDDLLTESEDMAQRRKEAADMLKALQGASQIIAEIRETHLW
UniProt Q14258: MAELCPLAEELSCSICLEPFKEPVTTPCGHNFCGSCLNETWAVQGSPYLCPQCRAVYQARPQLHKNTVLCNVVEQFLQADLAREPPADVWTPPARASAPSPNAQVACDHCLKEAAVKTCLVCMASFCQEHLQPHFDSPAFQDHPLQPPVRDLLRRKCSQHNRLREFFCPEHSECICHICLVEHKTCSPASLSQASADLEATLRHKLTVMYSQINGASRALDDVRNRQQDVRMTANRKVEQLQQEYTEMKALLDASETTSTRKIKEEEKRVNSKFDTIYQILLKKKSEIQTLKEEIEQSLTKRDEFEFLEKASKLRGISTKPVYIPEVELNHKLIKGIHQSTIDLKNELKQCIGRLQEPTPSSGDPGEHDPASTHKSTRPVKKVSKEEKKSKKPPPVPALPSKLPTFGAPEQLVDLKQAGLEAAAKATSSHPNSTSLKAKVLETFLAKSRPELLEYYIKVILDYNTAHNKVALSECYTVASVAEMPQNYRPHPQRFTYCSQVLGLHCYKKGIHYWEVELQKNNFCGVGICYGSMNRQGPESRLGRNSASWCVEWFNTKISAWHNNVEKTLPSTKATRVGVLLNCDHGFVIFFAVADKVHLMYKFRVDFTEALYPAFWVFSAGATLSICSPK

How the values were obtained:
Assay in all cases: co-IP; endogenous proteins in A549 cell lysates; immunoprecipitation followed by Western blot
[1] = target: T1, HERC5 (human (endogenous in A549)) (UniProt Q9UII4)
T1 sequence: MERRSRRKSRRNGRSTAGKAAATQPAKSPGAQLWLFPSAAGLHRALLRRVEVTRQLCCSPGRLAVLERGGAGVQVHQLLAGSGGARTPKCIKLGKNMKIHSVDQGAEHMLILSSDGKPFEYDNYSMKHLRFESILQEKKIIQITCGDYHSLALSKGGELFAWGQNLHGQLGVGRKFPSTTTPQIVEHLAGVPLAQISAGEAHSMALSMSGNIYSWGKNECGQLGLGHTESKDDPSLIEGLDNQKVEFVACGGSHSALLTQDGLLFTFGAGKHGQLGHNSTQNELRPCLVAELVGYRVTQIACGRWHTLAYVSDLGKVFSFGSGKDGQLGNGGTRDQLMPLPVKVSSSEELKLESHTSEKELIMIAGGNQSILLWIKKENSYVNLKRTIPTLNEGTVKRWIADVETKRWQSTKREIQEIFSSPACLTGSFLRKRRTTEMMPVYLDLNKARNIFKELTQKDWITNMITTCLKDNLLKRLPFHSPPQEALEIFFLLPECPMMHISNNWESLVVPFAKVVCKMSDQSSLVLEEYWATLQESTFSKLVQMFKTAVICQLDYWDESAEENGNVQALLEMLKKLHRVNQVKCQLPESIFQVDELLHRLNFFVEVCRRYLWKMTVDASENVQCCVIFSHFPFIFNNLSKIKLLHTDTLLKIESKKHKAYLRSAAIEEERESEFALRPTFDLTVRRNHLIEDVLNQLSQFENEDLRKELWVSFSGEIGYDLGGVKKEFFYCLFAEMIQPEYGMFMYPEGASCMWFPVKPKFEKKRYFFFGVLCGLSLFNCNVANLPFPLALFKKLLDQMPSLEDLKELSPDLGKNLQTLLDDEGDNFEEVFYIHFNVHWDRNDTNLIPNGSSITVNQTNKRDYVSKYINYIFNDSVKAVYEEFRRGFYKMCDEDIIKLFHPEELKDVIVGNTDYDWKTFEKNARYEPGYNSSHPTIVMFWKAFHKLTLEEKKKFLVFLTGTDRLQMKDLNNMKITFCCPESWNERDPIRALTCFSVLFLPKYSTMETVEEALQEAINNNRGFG

[2] = target: interferon-stimulated gene 15 (ISG15) (human (endogenous in A549)) (UniProt P05161)
[3] = target: Dynamin related protein 1 (DRP1) (human (endogenous in A549)) (UniProt O00429)

| binding [1] | binding [2] | binding [3] | Substance |
| --- | --- | --- | --- |
| binds | binds | – | Dynamin related protein 1 (DRP1) (from UniProt O00429 1-736) |
| – | – | binds | TRIM25 (tripartite motif containing 25) (from UniProt Q14258 1-630) (enzyme) |
